Measurements published in article PMC10232555.
No constants are given. Whether binding was seen depends on the method and setting. Some binding calls cover weakened binding; strength is not graded here.

Protein sequences, listed by entry. Tags and fused reporters are not part of them.
UniProt P08670: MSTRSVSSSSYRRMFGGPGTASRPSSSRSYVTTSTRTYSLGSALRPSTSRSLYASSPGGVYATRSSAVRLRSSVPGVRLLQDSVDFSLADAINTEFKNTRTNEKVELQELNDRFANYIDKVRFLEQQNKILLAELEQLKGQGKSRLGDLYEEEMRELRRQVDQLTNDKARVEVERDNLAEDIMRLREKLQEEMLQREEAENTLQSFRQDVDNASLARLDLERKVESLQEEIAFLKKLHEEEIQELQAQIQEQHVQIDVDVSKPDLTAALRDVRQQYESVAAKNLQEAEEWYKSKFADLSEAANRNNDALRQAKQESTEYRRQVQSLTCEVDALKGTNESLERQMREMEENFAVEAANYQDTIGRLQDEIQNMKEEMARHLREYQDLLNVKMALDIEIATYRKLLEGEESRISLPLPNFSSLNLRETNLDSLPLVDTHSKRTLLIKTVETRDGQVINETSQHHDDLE

How the values were obtained:
[1] = biological target: full-length (FL) human vimentin (human) (UniProt P08670); assay: cross-linking; data not shown; 14N and 15N tetramers assembled separately in LS buffer, mixed 1:1, cross-linked with DSG and DSS, MS and LinX analysis: test of exchange of dimers between tetramers; both purified
[2] = biological target: full-length (FL) human vimentin (human) (UniProt P08670); assay: cross-linking; cross-links identified by mass spectrometry; 14N and 15N dimers prepared in 6.2 M urea, mixed 1:1, dialysed into 2 mM HEPES pH 8.2; 0.3 mg/mL; DSG, DSS, DSPU, DSBU at 50x; trypsin, LC-MS, LinX; inter- or intradimeric by the α-ratio (light-only sample: 0.15 mg/mL, DSG, DSPU, DSBU at 100x); both purified
[3] = biological target: full-length (FL) human vimentin (human) (UniProt P08670); assay: SEC-SAXS; FL vimentin 2.8 mg/mL, Superose 6 Increase 3.2/300, 2 mM HEPES pH 8.2, 1% sucrose; both purified

- binding [1]: binds
- binding [2]: binds
- binding [3]: binds
Substance: full-length (FL) human vimentin (from UniProt P08670 1-466)
